The results in this text go back to PubChem BioAssay AID1508600 (Functional Genomics Laboratory (NCATS/FGL), 2020).

About 3,700 (7%) of roughly 53,000 sequences were called active.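 The calls were made as follows: active = gene knockdowns whose robust z-score for IL-1 alpha signal is at least 2 or at most -2, so actives lie on both sides; inactive = the rest.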 Some of the results follow.

A short description of this test: Components of the Cytosolic LPS Sensing Pathway: Gene Identification via Genome-wide siRNA Screen.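 Also: robust z of the log signal after scaling to non-targeting control siRNA wells of the plate.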 Conditions: RAW264.7 macrophages, IL-1a HTRF, actives lie on both sides, screened at 100 nM (by protocol), cells primed 5 h with Pam3CSK4 first. The method in brief: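 Supernatant IL-1a by HTRF from RAW264.7 cells primed with Pam3CSK4 (5 hours) and transfected with LipidA (24 hour) after 48h siRNA knockdown at 100 nM; cell viability checked with CellTiter-Glo.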
On to GGAGCUGAAAAAACUGAAGTT against Pptc7, for which the z-score is inactive: 1.66.
To GGACAUCUCCUGUCUGAAUTT against Timm50 belongs inactive: 0.491; to GGAGCUAAACUCCUUGAAGTT against Slc22a4, active: 2.07.
To GCAAGGAUGAAUCUAUAGATT against Pdgfrb belongs inactive: -0.0539; to GGUUUUCCAAGGUGGGCAUTT against Rp1l1, inactive: 1.77.
Then CCUUUUUGUGGAAGUCGUUTT against Car1, with inactive: 0.0351; and CUAGCAGGUUCAGAAUUUUTT against Olfr330, with inactive: -1.55; and GGAGGGUCUCUUUAAGUUCTT against Prkd2, with inactive: 1.35.
For GGUUUUGUGAGGAGGCCAGTT against Gm10413, the z-score is inactive: -1.37.
Then GGUGUACCAUAGAUGAUCGTT against Opcml, with inactive: -1.05; and CCCAGAAGCCUUAUCGUCUTT against Mzt1, with active: 2.37.
To GGAGGUAAACAUAACUUAUTT against Ereg belongs inactive: 1.41.
To GGAUUUAUGGCAAGUUUCUTT against Ppp2r5e belongs inactive: 0.00387; to GGUGACCAGCUCCAUUUCUTT against Ccn5, active: 2.61; to GGAAAUCAUCUUUUCAGAUTT against Slc7a12, inactive: -0.443.
As for GGACAUAACAUACAUCUCUTT against Sdf4, the z-score was inactive: 1.12.
Then GGCCAAGGACAUUAUAAAUTT against Scly, with inactive: -0.585; and GGAAUCAAAUGACUAAGAATT against Mcl1, with inactive: 0.129.
Then GGGUAACUAUUGGACUAACTT against Gabrq, with inactive: -0.262; and GGUAUAUUGCCAUAUGUAATT against Olfr731, with inactive: -0.174.
To CCAGUAUGGCUUAAAGACCTT against Bglap3 belongs inactive: -0.84.
GGUAGUGAAUGAACUCUUUTT against Bcl2l1: the z-score was inactive: -1.41.
Then GGUUCUACUGGAGUCCUGGTT against Cd6, with inactive: -1; and “GGUUAGGUCUAACCAUUGATT against A630005I04Rik”, with inactive: 0.639; and GGUGGAAAACAACACCUUATT against Tarsl2, with inactive: 0.755.
Then GCCUCCAUUUCUUGGACGATT against Mpg, with inactive: -0.627.
To GGAAACCAAGAUUUCUCAGTT against Tyro3 belongs inactive: -0.405.
Take GGCUGUGCAUUAUAUCCUUTT against Lhfpl1: the z-score was inactive: 1.2.
Then GGCCUCUUUGGAUCUAAGCTT against Nupl1, with inactive: 0.78; and GCAACCAUCGAACUCAAGGTT against Smarca4, with inactive: 1.08.
For GGAAGUCUCCUACAAUGCCTT against Paxip1, the z-score was inactive: 0.12.
To CGAGAUUUGUAACAAGUCATT against Dr1 belongs inactive: -1.5; to GCGACGAAGAUGUCCUGUUTT against Plxna2, inactive: -1.75; to GCUGAGCCGUGAGUUCAAUTT against Trp63, inactive: 0.372.
Then GCCAUCUUAAGUUGUAACUTT against Fgfr3, with inactive: 0.417; and GGAUCCUUCAGCAUUCUUATT against Egr2, with inactive: -0.476; and CGUUCCAAGGGAGAACACATT against Dab1, with inactive: 1.08.
Then GGACUCGUUCCACUAUCAUTT against Naa20, with inactive: 0.33; and CCUCGAAUUUCAAUAUGCUTT against Ncam1, with inactive: -0.672.
On to GGCUCUGAAUAGUGGGCUGTT against Olfr974, for which the z-score is inactive: 0.521.
Then GGUAUUAACUUUGACAAUCTT against Ncoa5, with inactive: -0.456; and GGAGUUUCUGGUGUGAUCCTT against Fkbp9, with inactive: 0.341; and GGUUAAGGAGAAAUGUGAUTT against Mob3a, with inactive: -0.0804.
Then CCUACUCGUAUAAUCUUCUTT against Ago3, with inactive: 0.496; and GGCAGUGAAAGCAAAGCUGTT against Cldn7, with inactive: -1.87; and AUGCCUAUACAAUUCUGUGTT against Olfr1167, with inactive: 0.0339.
To GCAGUUACACAUUUGAACATT against Msantd2 belongs inactive: 1.62; to GGUGGACACAGCUUAAAGCTT against Vmn1r237, inactive: 0.0057; to GGACAUUUUGAACUGUUAUTT against Pkd2l1, inactive: 0.263.
Take GGAGAAAAAGAGAUAAGGUTT against Ppp2r2b: the z-score is inactive: -0.893.
As to GGUUAGUCGACAGAAACAATT against Poteg, the z-score is inactive: -1.11.
As to GGACAUUAUUUUCUUGUCATT against Skint3, the z-score was inactive: -0.341.
Then GCUACUCAGUCUUUACUAUTT against Telo2, with active: -2.14; and CCUUGACAACCAACAGAUUTT against Shc4, with inactive: 0.432.
Then GGAAAUCGUGCGUGGCUACTT against Phpt1, with inactive: 1.57; and GCACAAGCGAAGAAGUUUGTT against Ube2i, with inactive: -0.0933.
To GGACUGAGAAAACUCCAAATT against Hmgxb3 belongs inactive: -0.446.
For the sequence UUCCAGAAACUACCUGUGCTT against Adcy1, the z-score was inactive: 0.694.
To GCCAAUUUUGAACCACUACTT against Itga8 belongs inactive: -0.56.
Then CCGACCAUCUGUGGAAAUATT against Samd5, with inactive: 0.227.
To GGAGAACCCAUGUAACUGUTT against Tcl1b1 belongs inactive: 0.11; to CGUGUGUUCCGGAAACAGATT against Tnfrsf11b, inactive: -0.188; to GCCUUAGGAUACUACUGUUTT against Map3k3, inactive: -0.136.
For GGGUUCUCCAAUGCUUACATT against Mrps23, the z-score is inactive: -0.534.
Then GCGUAGAGUCCUUUCGUCUTT against Krt10, with inactive: 0.818; and GCCACAUAGAUCGCAUGGUTT against Lox, with inactive: -0.766.
To CCUUAUUGUGACAGAAGUATT against Tnc belongs inactive: -0.0884.
To GCUAAGAGUACAUUGUAACTT against Tmeff2 belongs inactive: 0.0631.
